Test results from paper PMC7930485.
No constants are given. Whether binding was seen depends on the method and setting. Binding seen in cells or lysates may run through a third protein. Binding can be weak; no strength is given.

Molecular target: T1, γ-catenin (human (endogenous in HK-2)) (UniProt P14923)
T1 sequence: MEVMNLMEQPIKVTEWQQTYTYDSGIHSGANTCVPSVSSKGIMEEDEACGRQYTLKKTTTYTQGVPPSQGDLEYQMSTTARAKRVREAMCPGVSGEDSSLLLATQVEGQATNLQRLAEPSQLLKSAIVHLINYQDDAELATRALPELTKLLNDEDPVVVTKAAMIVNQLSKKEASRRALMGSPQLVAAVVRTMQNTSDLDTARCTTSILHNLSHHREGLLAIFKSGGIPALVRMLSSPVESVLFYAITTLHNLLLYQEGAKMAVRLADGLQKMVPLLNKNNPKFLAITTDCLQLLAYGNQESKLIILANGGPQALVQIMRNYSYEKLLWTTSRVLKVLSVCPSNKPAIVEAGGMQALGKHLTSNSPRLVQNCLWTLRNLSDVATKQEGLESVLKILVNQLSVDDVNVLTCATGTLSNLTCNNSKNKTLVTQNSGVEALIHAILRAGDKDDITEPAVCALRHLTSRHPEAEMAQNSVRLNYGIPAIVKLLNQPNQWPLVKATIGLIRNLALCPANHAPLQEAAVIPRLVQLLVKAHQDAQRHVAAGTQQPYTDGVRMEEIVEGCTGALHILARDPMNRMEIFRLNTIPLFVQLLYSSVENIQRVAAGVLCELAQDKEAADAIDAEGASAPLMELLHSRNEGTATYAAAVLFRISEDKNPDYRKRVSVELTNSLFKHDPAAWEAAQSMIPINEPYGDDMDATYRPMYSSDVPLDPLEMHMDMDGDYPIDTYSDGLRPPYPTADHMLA
Test: co-IP; anti-CD47 or anti-γ-catenin on Protein G Sepharose beads, HK-2 cell lysate (IP buffer with protease inhibitors), 4°C 12 h; gel electrophoresis and blot; cells with or without OX-LDL

E-cadherin (human (endogenous in HK-2)) was tested, and the binding was “binds”.
